Results as given in PubChem BioAssay AID504467 (National Center for Advancing Translational Sciences (NCATS), 2011).
The campaign covered roughly 330,000 compounds. About 7,700 (2.3%) were called active. The inconclusive results got no clear call from the source; some entries with a clear call stand among them for comparison. Calls come from the whole dose curve; as a rule, active = well fitted inhibition curve with a large enough effect; inconclusive = small, poorly fitted or top-dose-only effect, or effect the other way; inactive = flat fitted curve, though single readings scatter. A potency beside an inconclusive call is a rough fit, not a confirmed value.

Test: qHTS screen for small molecules that inhibit ELG1-dependent DNA repair in human embryonic kidney (HEK293T) cells expressing luciferase-tagged ELG1; note: nearly all actives have a fitted effect of over 55% in size
Settings: HEK293T ELG1-luciferase reporter, luminescence, 16 h, DNA damage induced by 5-fluorouridine; series mostly up to 46.1 µM
Summary of the method: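 Luminescence from the luciferase reporter, measured 30 min after ONE-Glo reagent at room temperature, was the read-out. Beforehand, 2,000 cells per well were exposed for 16 hr at 37 °C to 5-fluorouridine together with compound or vehicle.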
Potency is the fitted concentration of half-maximal effect.

SMILES	Potency
CCn1c(=O)cc(OCC(=O)N2CCN(c3cccc(C(F)(F)F)c3)CC2)c2ccccc21	inconclusive: 6.51 µM [inhibitor, partial curve, poor fit]
CCCCOC(=O)c1nnc(-c2ccccc2)o1	inactive
Cc1cc(C)n(C(=O)c2cc(F)c(F)cc2C)n1	inconclusive: 18.3 µM [activator, single point]
O=C(NCCNc1ccc(Cl)cc1[N+](=O)[O-])c1ccccc1F	inconclusive: 22.4 µM [activator, single point]
C=CCOC(=O)C1=C(C)NC(SC)=C(C#N)C1c1cccs1 (centres undefined)	inactive
CC(C)CN(C(=O)COC(=O)CCc1c[nH]c2ccccc12)c1c(N)n(Cc2ccccc2)c(=O)[nH]c1=O	inactive
CCOc1cc(N2CCOCC2)c(OCC)cc1NC(=O)CSc1ncccn1	inconclusive: 16.4 µM [inhibitor, single point]
O=C(Nc1ccc(COc2ccccc2)cc1)Nc1cccc(C(=O)O)c1	inconclusive: 4.61 µM [activator, full curve]
Cc1ccc(C)c(N=Cc2cc3c(cc2[N+](=O)[O-])OCO3)c1	inactive
C/C(=N/NC(=O)CNC(=O)Cc1ccccc1)c1ccc(Cl)cc1	inconclusive: 20.6 µM [activator, partial curve, poor fit]
Cc1ccc(C2=N/C(=C\c3cccs3)C(=O)N2Nc2ccccc2)cc1	active: 14.6 µM
CC(NC(=O)C(=O)NN=C1CCCCCCC1)c1ccccc1 (centres undefined)	inconclusive: 20.6 µM [activator, partial curve, poor fit]
O=C(NC(=S)Nc1cccc([N+](=O)[O-])c1)c1ccccc1	inconclusive: 18.3 µM [activator, partial curve]
Cc1c(CCC(=O)O)c(=O)oc2c(C)c3occ(-c4ccc(Cl)cc4)c3cc12	inconclusive: 6.51 µM [inhibitor, single point]
CC1=NN(C(=O)c2ccoc2C)C(O)(C(F)(F)F)C1 (centres undefined)	inconclusive: 14.6 µM [activator, partial curve, poor fit]
CCc1cc(C(=O)COc2ccc(F)cc2)c(O)cc1O	inconclusive: 18.3 µM [activator, single point]
COc1ccc(C(=O)Cn2cnc3ccccc3c2=O)cc1	inconclusive: 16.4 µM [activator, partial curve]
O=C(CN1CCCCCCC1)NC(=O)NC1CCCCC1	inconclusive: 32.6 µM [activator, single point]
COc1ccc(S(=O)(=O)N/N=C\c2ccc3c(c2)OCO3)c(OC)c1	inconclusive: 1.64 µM [inhibitor, partial curve, poor fit]
COc1ccc(CNC(=O)COc2ccccc2C(=O)c2cnn(-c3ccccc3)c2)cc1OC	inconclusive: 5.62 µM [activator, single point]
O=C(CSc1ccc2nnc(-c3cccnc3)n2n1)NCC1CCCO1 (centres undefined)	inactive
COc1ccc(OC)c(-c2nc(C(=O)NCC3CCCO3)cc3c2[nH]c2ccccc23)c1 (centres undefined)	inconclusive: 7.3 µM [inhibitor, partial curve, poor fit]
CC1CCCCN1C(=O)Nc1cccc(C(F)(F)F)c1 (centres undefined)	inactive

SMILES	Potency
CCN(CC)C(=O)CC(c1ccc(N(C)C)cc1)c1c(OC)cc(OC)c2c(-c3ccccc3)cc(=O)oc12 (centres undefined)	inconclusive: 29.1 µM [inhibitor, single point]
Oc1ccc2ccccc2c1CNc1ccc(Br)cn1	inconclusive: 20.6 µM [activator, single point]
C=CCn1c(O)c(N=NC(=O)CNC(=O)Cc2ccccc2)c2ccccc21	inactive
Cc1n[nH]c(C)c1CCc1nc2c3ccccc3nc(SCC(=O)Nc3ccccc3F)n2n1	inconclusive: 5.8 µM [inhibitor, full curve]
COc1cccc(N2C(=O)C3CCCN3C2c2ccc(F)cc2)c1 (centres undefined)	inconclusive: 29.1 µM [activator, partial curve, poor fit]
Cc1cc(C(=O)CSc2nncs2)c(C)n1-c1ccc2c(c1)OCO2	inconclusive: 4.11 µM [activator, full curve]
COc1ccc(S(=O)(=O)NCc2ccncc2)cc1OC	active: 7.31 µM
O=C(COC(=O)/C=C/c1cccc(C(F)(F)F)c1)NC(c1ccccc1)c1ccccc1	inactive
CCC(C)(C)NC(=O)c1cc(C(=O)OC)cc([N+](=O)[O-])c1	inactive
CC(NC(=O)Cc1cccs1)c1ccc2c(c1)OCO2 (centres undefined)	inactive
O=C(NCCc1ccccc1F)C1CCCN(c2nc3ccccc3s2)C1 (centres undefined)	inconclusive: 18.3 µM [inhibitor, partial curve, poor fit]
CC(=O)c1c(C)[nH]c(C(=O)OCC(=O)Nc2cccc(S(=O)(=O)N(C)C)c2)c1C	active: 13 µM
CC(=O)N1CC(=O)N(Cc2ccccc2)/C(=C/c2ccccc2)C1=O	inactive
O=S(=O)(c1ccccc1)c1nc(Nc2ccccc2N2CCOCC2)sc1Cl	inconclusive: 32.6 µM [inhibitor, single point]
CC(=O)Nc1ccc2c(c1)nc(C)n2-c1ccccc1	inconclusive: 29.1 µM [activator, single point]
CCCc1cc(=O)n2[nH]c(-c3cccc(Br)c3)cc2n1	inconclusive: 6.51 µM [activator, partial curve]
O=C(NNC(=O)c1ccccc1Cl)c1cc2cc(OC(F)(F)F)ccc2[nH]1	inactive
CSc1nsc(SCC(=O)Nc2ccc(Br)cn2)n1	inconclusive: 20.6 µM [activator, partial curve]
CCCCN(CC)CCCNC(=S)Nc1ccc2nc(N3CCN(CC)CC3)cc(C)c2c1	inactive
CCC(=O)N1CCc2cc(Br)cc(S(=O)(=O)N3CCC(C(=O)NC(C)(C)C)CC3)c21	active: 7.3 µM
COCCNC(=O)C1=C(N)C(C(=O)Nc2ccc(C)c(S(=O)(=O)N3CCCCC3)c2)SC1=Nc1ccc(C)cc1C (centres undefined)	inconclusive: 29.1 µM [inhibitor, single point]
CCc1ccc2c(c1)C(O)(CC(=O)c1cccs1)C(=O)N2 (centres undefined)	inactive
Cc1cc(N2CCC(C)CC2)nc(NCc2ccccc2)n1	inconclusive: 16.4 µM [inhibitor, partial curve]

Taken from above.
Potency, `CC(NC(=O)Cc1cccs1)c1ccc2c(c1)OCO2` (centres undefined) is entered as inactive
Potency, `O=C(NCCc1ccccc1F)C1CCCN(c2nc3ccccc3s2)C1` (centres undefined) is entered as inconclusive: 18.3 µM [inhibitor, partial curve, poor fit]
Potency, `COc1ccc(S(=O)(=O)NCc2ccncc2)cc1OC` is entered as active: 7.31 µM

(next part)

SMILES	Potency
CC(=O)c1ccc(S(=O)(=O)N2CCN(C(=O)/C=C/c3ccc4ccccc4n3)CC2)cc1	active: 20.6 µM
COc1cccc(CNC(=O)C2CCN(S(=O)(=O)c3cccc4nonc34)CC2)c1	inactive
Cc1ccc(-c2cc(C(=O)N/N=C/c3c[nH]c4ccccc34)n[nH]2)o1	inconclusive: 29.1 µM [inhibitor, single point]
Cn1c(NCC2CCCO2)nc2c1c(=O)n(Cc1ccccc1)c(=O)n2C (centres undefined)	inconclusive: 28.2 µM [inhibitor, single point]
CCc1ccc2nc(NC(=O)CN3C(=O)NC4(CCCC4)C3=O)sc2c1	inconclusive: 6.51 µM [activator, partial curve, poor fit]
O=C(CSc1ncnc2sc3c(c12)CCC3)NCC1CCCO1 (centres undefined)	inactive
CCc1ccc(NC(=O)Cn2c(=O)n(CCC(=O)NC3CCN(Cc4ccccc4)CC3)c(=O)c3ccccc32)cc1	inconclusive: 0.58 µM [activator, single point]
COc1cccc(C2=CC(=O)C[C@H](c3ccc4c(c3)OCO4)C2)c1OC	inconclusive: 2.59 µM [activator, full curve, poor fit]
NC(=O)C1CCN(C(=O)CCSCc2ccccc2)CC1	inconclusive: 23.1 µM [activator, partial curve, poor fit]
CCOC(=O)c1cc(-c2ccccc2C)nn1Cc1cc(C)no1	inconclusive: 22.4 µM [activator, single point]
COc1ccc(NC(=O)c2cc(C(C)C)on2)cc1OC	inconclusive: 20.6 µM [activator, partial curve]
CSc1ccc(S(=O)(=O)NC2CCCCCC2)cc1	inconclusive: 6.51 µM [inhibitor, partial curve, poor fit]
CCOC(=O)COc1ccc(Br)cc1C1NC(=O)NC(C)=C1C(=O)NCc1ccccc1 (centres undefined)	inconclusive: 3.16 µM [inhibitor, single point]
CN(CCOc1ccc(Cl)cc1)C(=O)c1ccccc1SCC(=O)N1CCCC1	inconclusive: 35.5 µM [inhibitor, single point]
Cn1cnnc1SCC(=O)c1ccc2c(c1)OCCO2	inconclusive: 16.4 µM [activator, single point]
N=c1n(Cc2ccccc2Cl)c2ccccc2n1CC(O)c1ccco1 (centres undefined)	inconclusive: 23.1 µM [inhibitor, single point]
Cn1cccc1/C=N/NC(=O)Cn1cnc2ccccc21	inactive
NC(=S)n1[nH]c(-c2ccc([N+](=O)[O-])cc2)c(N=Nc2cccc(Cl)c2)c1=O	active: 3.66 µM
O=C1N(c2ccccc2C(F)(F)F)OC1(Cc1ccccc1)c1ccccc1 (centres undefined)	inconclusive: 16.4 µM [inhibitor, single point]
COC(=O)CCC(=O)NC(=S)Nc1ccccc1F	inconclusive: 29.1 µM [activator, partial curve, poor fit]
COC(=O)C(NC(=O)c1ccc(F)cc1)(Nc1ncc(S(=O)(=O)c2ccc([N+](=O)[O-])cc2)s1)C(F)(F)F (centres undefined)	inactive
COc1ccc2nc(Nc3nc(CSc4nnc(C)s4)cc(=O)[nH]3)nc(C)c2c1	inactive
Cc1ccn2cc(CSc3ccccc3N)nc2c1	inconclusive: 6.31 µM [activator, partial curve]
